pIC50: −log10 of the molar value. At least one structure is not confirmed: it was looked up by name or label, or the drawing left a doubt.
Target: IDBP (Saguinus oedipus, UniProt Q9N1U2)
Experiment: Competitive displacement of [3H]25-OHD3 from IDBP in unfractionated 100,000×g supernatant extracts of B95-8 cells (competitive protein binding assay, dextran-coated charcoal)
Parameters: post-nuclear 100,000xg supernatant of B95-8 marmoset lymphoblasts and partly purified column fractions; species or system Callithrix jacchus (common marmoset)
Conditions: assuming 80% displacement of bound [3H]25-OHD3 as maximal inhibition; read-out: ED50 for binding (displacement of [3H]25-OHD3, FIG. 1B)
Description: Culture and Extraction of B95-8 Cells. The B-lymphoblastoid cell line B95-8 was obtained from the American Type Culture Collection (ATCC, Manassas, Va.). This cell line was established by EBV transformation of blood leukocytes from the vitamin D-resistant new world primate, Callithrix jacchus (common marmoset). The cell line was maintained in RPMI-1640 medium (Irvine Scientific, Irvine, Calif.) routinely supplemented with 10% fetal calf serum (FCS; Gemini BioProducts, Calabasas, Calif.), 100 units/ml penicillin, 100 μg/ml streptomycin, 2 mM L-glutamine (both from Gibco-BRL, Grand Island, N.Y.) in an atmosphere of 95% air-5% CO2.
Confluent cultures were harvested by agitation to dislodge clumps of lymphoblasts that were weakly adherent to the plastic flask. Harvested cells were pelleted and washed twice in ice cold phosphate-buffered saline (PBS; 20 mM Na2 HPO4 and 150 mM NaCl, pH 7.2). The pelleted cells were then resuspended in ETD buffer (1 mM EDTA, 10 mM Tris-HCl, 5 mM dithiothreitol, pH 7.4) containing 1 mM phenylmethylsulfonylflouride and homogenized by Polytron on ice in five 15-second bursts. Nuclei with associated nuclear steroid receptor proteins, were pelleted at 4,000×g for 30 minutes at 4° C. […]
[…] The binding assay conditions were the same as those stated above except that specific binding was determined in ETD-0.3 M Na2 HPO4 buffer (pH 6.8).

Amino acid sequences for entries named in this document (tags omitted).
UniProt Q9N1U2, whole entry: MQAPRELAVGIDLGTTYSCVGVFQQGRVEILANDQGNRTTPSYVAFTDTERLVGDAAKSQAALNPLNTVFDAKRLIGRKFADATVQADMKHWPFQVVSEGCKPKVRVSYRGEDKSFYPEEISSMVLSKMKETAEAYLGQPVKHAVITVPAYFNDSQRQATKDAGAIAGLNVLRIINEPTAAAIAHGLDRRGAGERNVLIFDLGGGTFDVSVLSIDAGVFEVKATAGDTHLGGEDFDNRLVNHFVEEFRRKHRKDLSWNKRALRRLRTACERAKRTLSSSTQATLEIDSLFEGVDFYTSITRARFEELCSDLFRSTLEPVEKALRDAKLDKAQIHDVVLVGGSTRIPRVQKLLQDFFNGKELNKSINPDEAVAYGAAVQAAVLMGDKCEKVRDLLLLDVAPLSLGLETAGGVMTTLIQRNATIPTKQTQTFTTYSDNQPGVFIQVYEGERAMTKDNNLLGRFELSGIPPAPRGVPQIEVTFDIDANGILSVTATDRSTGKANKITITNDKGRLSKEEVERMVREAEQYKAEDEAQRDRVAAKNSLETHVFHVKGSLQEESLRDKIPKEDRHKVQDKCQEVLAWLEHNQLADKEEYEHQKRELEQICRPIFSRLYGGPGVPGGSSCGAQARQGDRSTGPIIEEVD

## C=C1CC[C@H](O)C/C1=C/C=C1\CCC[C@]2(C)[C@@H]([C@H](C)CCC(O)C(C)(C)O)CC[C@@H]12 (some centres unmarked) [24,25-(OH)2D3]
  pIC50: 7.30

## C=C1CC[C@H](O)C/C1=C/C=C1\CCC[C@]2(C)[C@@H]([C@H](C)CCCC(C)(O)CO)CC[C@@H]12 (some centres unmarked) [25,26-(OH)2D3]
  pIC50: 8.30

Source: patent US6268478A, “Intracellular vitamin D binding protein” (Cedars-Sinai Medical Center, priority 1997, dated 2001)
